PubChem BioAssay AID1259254, NCATS, 2017

Aim: 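Finding genes that stop cells copying their DNA twice in one cycle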 (primary screen)
Cells: human HCT116 colorectal cancer cells
Knock-down reagent: single siRNA against human genes
Time to read-out: 3 days
Measured: 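Nuclei stained with Hoechst and imaged; cell-cycle phase assigned by DNA content; G2 share scaled per plate, non-targeting siRNA 0%, GMNN siRNA 100%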
Reading the numbers: G2 robust z-score and G2 cells, % of GMNN control: higher = more G2 cells, more excess DNA replication
Active means: 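Active siRNAs have a G2 robust z of 5 or more median absolute deviations over the median, which in these data means about 38% or higher of GMNN control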
This is one part, drawn at random, of about 59,000 reagents tested. About 1,550 of all reagents (2.6%) were called active. 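G2 share is only a proxy for re-replication; each gene was hit by three separate siRNAs, and active genes were retested.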 The numbers tell different reagents against one gene apart. Further read-outs or replicates are left out here. Not stated in the record: the amount of reagent.

gene	reagent	G2 robust z-score	G2 cells, % of GMNN control	Outcome
HNRNPKP3 (heterogeneous nuclear ribonucleoprotein K pseudogene 3)	1	-1.16	-5.2	inactive
HNRNPKP3 (heterogeneous nuclear ribonucleoprotein K pseudogene 3)	2	-0.709	-2.02	inactive
HNRNPKP3 (heterogeneous nuclear ribonucleoprotein K pseudogene 3)	3	0.827	8.79	inactive
DNAJC27 (DnaJ heat shock protein family (Hsp40) member C27)	1	-0.165	1.81	inactive
DNAJC27 (DnaJ heat shock protein family (Hsp40) member C27)	2	-0.737	-2.22	inactive
DNAJC27 (DnaJ heat shock protein family (Hsp40) member C27)	3	0.088	3.59	inactive
GYPE (glycophorin E (MNS blood group))	1	-0.239	1.28	inactive
GYPE (glycophorin E (MNS blood group))	2	0.479	6.34	inactive
GYPE (glycophorin E (MNS blood group))	3	0.45	6.13	inactive
TPM2 (tropomyosin 2)	1	-0.22	1.42	inactive
TPM2 (tropomyosin 2)	2	-0.685	-1.85	inactive
TPM2 (tropomyosin 2)	3	0.355	5.47	inactive
RBM12B (RNA binding motif protein 12B)	1	-1.19	-5.37	inactive
RBM12B (RNA binding motif protein 12B)	2	0.101	3.68	inactive
RBM12B (RNA binding motif protein 12B)	3	-0.953	-3.73	inactive
GALE (UDP-galactose-4-epimerase)	1	-0.875	-3.19	inactive
GALE (UDP-galactose-4-epimerase)	2	0.188	4.29	inactive
GALE (UDP-galactose-4-epimerase)	3	-0.0497	2.62	inactive
NAPRT (nicotinate phosphoribosyltransferase)	1	0.95	9.65	inactive
NAPRT (nicotinate phosphoribosyltransferase)	2	3.73	29.2	inactive
NAPRT (nicotinate phosphoribosyltransferase)	3	0.0458	3.29	inactive
FBXO5 (F-box protein 5)	1	19.4	139	active
FBXO5 (F-box protein 5)	2	11.4	82.8	active
FBXO5 (F-box protein 5)	3	19.7	141	active
COL6A3 (collagen type VI alpha 3 chain)	1	0.263	4.82	inactive
COL6A3 (collagen type VI alpha 3 chain)	2	1.71	15	inactive
COL6A3 (collagen type VI alpha 3 chain)	3	-1.22	-5.58	inactive
DAB2 (DAB adaptor protein 2)	1	-1.5	-7.57	inactive
DAB2 (DAB adaptor protein 2)	2	4.03	31.3	inactive
DAB2 (DAB adaptor protein 2)	3	-0.349	0.512	inactive
CDC23 (cell division cycle 23)	1	1.76	15.4	inactive
CDC23 (cell division cycle 23)	2	0.662	7.63	inactive
CDC23 (cell division cycle 23)	3	1	10	inactive
FBXL6 (F-box and leucine rich repeat protein 6)	1	0.0355	3.22	inactive
FBXL6 (F-box and leucine rich repeat protein 6)	2	2.8	22.7	inactive
FBXL6 (F-box and leucine rich repeat protein 6)	3	0.684	7.78	inactive
MFSD8 (major facilitator superfamily domain containing 8)	1	-0.615	-1.36	inactive
MFSD8 (major facilitator superfamily domain containing 8)	2	-0.348	0.522	inactive
MFSD8 (major facilitator superfamily domain containing 8)	3	-0.149	1.92	inactive
EIF3B (eukaryotic translation initiation factor 3 subunit B)	1	5.94	44.8	active
EIF3B (eukaryotic translation initiation factor 3 subunit B)	2	5.2	39.6	active
EIF3B (eukaryotic translation initiation factor 3 subunit B)	3	3.39	26.8	inactive
IFNA8 (interferon alpha 8)	1	0.165	4.13	inactive
IFNA8 (interferon alpha 8)	2	2.12	17.9	inactive
IFNA8 (interferon alpha 8)	3	0.359	5.49	inactive
EPC1 (enhancer of polycomb 1)	1	0.351	5.44	inactive
EPC1 (enhancer of polycomb 1)	2	-0.827	-2.85	inactive
EPC1 (enhancer of polycomb 1)	3	-0.38	0.29	inactive
CLECL1 (C-type lectin like 1)	1	0.28	4.94	inactive
CLECL1 (C-type lectin like 1)	2	0.135	3.92	inactive
CLECL1 (C-type lectin like 1)	3	0.326	5.26	inactive
NUDT12 (nudix hydrolase 12)	1	3.42	27	inactive
NUDT12 (nudix hydrolase 12)	2	-0.0645	2.51	inactive
NUDT12 (nudix hydrolase 12)	3	-0.32	0.718	inactive
MTPAP (mitochondrial poly(A) polymerase)	1	-0.605	-1.29	inactive
MTPAP (mitochondrial poly(A) polymerase)	2	0.722	8.05	inactive
MTPAP (mitochondrial poly(A) polymerase)	3	-0.483	-0.434	inactive
ATAD3C (ATPase family AAA domain containing 3C)	1	0.526	6.67	inactive
ATAD3C (ATPase family AAA domain containing 3C)	2	0.311	5.16	inactive
ATAD3C (ATPase family AAA domain containing 3C)	3	-1.22	-5.62	inactive
TPRN (taperin)	1	-0.353	0.481	inactive
TPRN (taperin)	2	-0.153	1.89	inactive
TPRN (taperin)	3	-0.949	-3.71	inactive
CSTF3 (cleavage stimulation factor subunit 3)	1	-0.668	-1.73	inactive
CSTF3 (cleavage stimulation factor subunit 3)	2	-1.17	-5.28	inactive
CSTF3 (cleavage stimulation factor subunit 3)	3	1.06	10.4	inactive
GNG11 (G protein subunit gamma 11)	1	-1.34	-6.43	inactive
GNG11 (G protein subunit gamma 11)	2	-0.931	-3.58	inactive
GNG11 (G protein subunit gamma 11)	3	0.269	4.86	inactive
PABPC4 (poly(A) binding protein cytoplasmic 4)	1	-0.522	-0.704	inactive
PABPC4 (poly(A) binding protein cytoplasmic 4)	2	-0.205	1.53	inactive
PABPC4 (poly(A) binding protein cytoplasmic 4)	3	-0.184	1.67	inactive
TAF1 (TATA-box binding protein associated factor 1)	1	3.24	25.8	inactive
TAF1 (TATA-box binding protein associated factor 1)	2	10.8	79	active
TAF1 (TATA-box binding protein associated factor 1)	3	0.2	4.38	inactive
SNRPEP2 (SNRPE pseudogene 2)	1	0.868	9.07	inactive
SNRPEP2 (SNRPE pseudogene 2)	2	0.625	7.37	inactive
SNRPEP2 (SNRPE pseudogene 2)	3	1.43	13	inactive
TPR (translocated promoter region, nuclear basket protein)	1	-1.2	-5.49	inactive
TPR (translocated promoter region, nuclear basket protein)	2	-1.3	-6.18	inactive
TPR (translocated promoter region, nuclear basket protein)	3	-0.957	-3.76	inactive
STARD5 (StAR related lipid transfer domain containing 5)	1	-0.214	1.46	inactive
STARD5 (StAR related lipid transfer domain containing 5)	2	-1.12	-4.93	inactive
STARD5 (StAR related lipid transfer domain containing 5)	3	1.35	12.5	inactive
MATCAP2 (microtubule associated tyrosine carboxypeptidase 2)	1	-0.724	-2.12	inactive
MATCAP2 (microtubule associated tyrosine carboxypeptidase 2)	2	0.2	4.38	inactive
MATCAP2 (microtubule associated tyrosine carboxypeptidase 2)	3	-0.44	-0.131	inactive

Reprinted from the entries so far, 4 entries:
gene	reagent	G2 robust z-score	G2 cells, % of GMNN control	Outcome
MFSD8 (major facilitator superfamily domain containing 8)	2	-0.348	0.522	inactive
MFSD8 (major facilitator superfamily domain containing 8)	3	-0.149	1.92	inactive
EIF3B (eukaryotic translation initiation factor 3 subunit B)	1	5.94	44.8	active
EIF3B (eukaryotic translation initiation factor 3 subunit B)	2	5.2	39.6	active
